According to article doi:10.1101/2023.06.07.543977:

Key:
mKu (mycobacterial Ku) [1] = target: T1, mKu (mycobacterial Ku) (UniProt P9WKD9); assay: EMSA; conditions: 5 nM DNA, 0-2.5 nM mKu, Hill n 1.5±0.3
T1 sequence (looked up, limits assumed): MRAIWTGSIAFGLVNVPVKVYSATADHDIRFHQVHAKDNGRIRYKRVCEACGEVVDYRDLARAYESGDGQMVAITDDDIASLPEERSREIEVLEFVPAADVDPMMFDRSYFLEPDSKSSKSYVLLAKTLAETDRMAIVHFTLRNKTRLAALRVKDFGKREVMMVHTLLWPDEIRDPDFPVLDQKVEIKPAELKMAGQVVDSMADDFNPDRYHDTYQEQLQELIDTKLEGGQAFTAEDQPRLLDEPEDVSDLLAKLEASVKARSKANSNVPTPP

mKu (mycobacterial Ku) [2] = target: T1, mKu (mycobacterial Ku); assay: SPR; conditions: recombinant protein
mKu (mycobacterial Ku) [3] = target: T1, mKu (mycobacterial Ku); assay: size exclusion chromatography; conditions: recombinant protein
mKu (mycobacterial Ku) [4] = target: T1, mKu (mycobacterial Ku); assay: differential scanning fluorimetry; conditions: recombinant protein
mKu (mycobacterial Ku) [5] = target: T1, mKu (mycobacterial Ku); assay: exonuclease III protection; conditions: recombinant protein
mKu (mycobacterial Ku) [6] = target: T1, mKu (mycobacterial Ku); assay: analytical ultracentrifugation; conditions: recombinant protein
mKu (mycobacterial Ku) [7] = target: T1, mKu (mycobacterial Ku); assay: negative-stain TEM; conditions: recombinant protein

CCCCCCTGTCGCCGCCGACGTCTGTGATATGGCGTTGTTG (double strand) [40 bp dsDNA (FAM)]
Kd (mKu (mycobacterial Ku) [1]): 0.33 nM

CCCCCCTGTCGCCGCCGACGTCTGTGATATGGCGTTGTTG (double strand) [40 bp dsDNA (biotin)]
half-maximal binding (mKu (mycobacterial Ku) [2]): 74.3 nM

CCCCCCTGTCGCCGCCGACGTCTGTGATATGGCGTTGTTG (double strand) [40 bp dsDNA (unlabelled)]
binding result (mKu (mycobacterial Ku) [3]): binds | binding result (mKu (mycobacterial Ku) [4]): binds | binding result (mKu (mycobacterial Ku) [5]): binds | binding result (mKu (mycobacterial Ku) [6]): binds | binding result (mKu (mycobacterial Ku) [7]): binds

The exact form of at least one protein or probe is not confirmed. Where a protein sequence is shown, tags need not be part of it.
